{"source": "the supplement of paper PMC4604168 (melanoma cell lines)", "note": "This is one part of the list. Single values are uncertain, as repeats are few or missing.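 Imaging used 1,536-well plates; nuclei positive for cleaved PARP by antibody were divided by total DNA-stained nuclei to yield the apoptosis fraction. Doses for screening kept most cells viable, and cell lines differ markedly in resting and induced cleaved-PARP levels.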"}
{"system": "CBRC034 (line from a melanoma biopsy)", "assay": "cleaved PARP positive nuclei fraction relative to DMSO control; melanoma cells; higher = more apoptosis", "conditions": "library dose: low library concentration; 72 h", "units": {"cleaved PARP positive nuclei fraction": "%"}}
{"smiles": "Cc1cn(-c2cc(NC(=O)c3ccc(C)c(Nc4nccc(-c5cccnc5)n4)c3)cc(C(F)(F)F)c2)cn1", "note": "[nilotinib] + Nc1nc(F)nc2c1ncn2[C@@H]1O[C@H](CO)[C@@H](O)[C@@H]1O [fludarabine] (first compound 0.2 µM, partner dose 0.2 µM)", "cleaved PARP positive nuclei fraction": 39.1}
{"smiles": "O=c1[nH]nc(Sc2ncc([N+](=O)[O-])s2)n1-c1ccc2c(c1)OCCO2", "note": "+ CO[C@H]1C[C@@H]2CC[C@@H](C)[C@@](O)(O2)C(=O)C(=O)N2CCCC[C@H]2C(=O)O[C@H]([C@H](C)C[C@@H]2CC[C@@H](OCCO)[C@H](OC)C2)CC(=O)[C@H](C)/C=C(\\C)[C@@H](O)[C@@H](OC)C(=O)[C@H](C)C[C@H](C)/C=C/C=C/C=C/1C [everolimus] (first compound 0.2 µM, partner dose 0.02 µM)", "cleaved PARP positive nuclei fraction": 79}
{"smiles": "O=c1[nH]nc(Sc2ncc([N+](=O)[O-])s2)n1-c1ccc2c(c1)OCCO2", "note": "+ Cn1nnc2c(C(N)=O)ncn2c1=O [temozolomide] (first compound 0.2 µM, partner dose 2 µM)", "cleaved PARP positive nuclei fraction": 76.7}
{"smiles": "Cc1cc(Nc2cc(N3CCN(C)CC3)nc(Sc3ccc(NC(=O)C4CC4)cc3)n2)n[nH]1", "note": "[Tozasertib] + C[C@@H](Oc1cc(-c2cnn(C3CCNCC3)c2)cnc1N)c1c(Cl)ccc(F)c1Cl [Crizotinib] (first compound 0.006 µM, partner dose 0.2 µM)", "cleaved PARP positive nuclei fraction": 69.1}
{"smiles": "O=c1[nH]nc(Sc2ncc([N+](=O)[O-])s2)n1-c1ccc2c(c1)OCCO2", "note": "+ NC(=O)c1ccc(N(C(N)=O)c2c(F)cccc2F)nc1-c1ccc(F)cc1F [VX702] (first compound 0.2 µM, partner dose 0.4 µM)", "cleaved PARP positive nuclei fraction": 159}
{"smiles": "Cc1ccc(Nc2nccc(N(C)c3ccc4c(C)n(C)nc4c3)n2)cc1S(N)(=O)=O", "note": "[Pazopanib] + CO[C@H]1C[C@@H]2CC[C@@H](C)[C@@](O)(O2)C(=O)C(=O)N2CCCC[C@H]2C(=O)O[C@H]([C@H](C)C[C@@H]2CC[C@@H](OCCO)[C@H](OC)C2)CC(=O)[C@H](C)/C=C(\\C)[C@@H](O)[C@@H](OC)C(=O)[C@H](C)C[C@H](C)/C=C/C=C/C=C/1C [everolimus] (first compound 0.4 µM, partner dose 0.02 µM)", "cleaved PARP positive nuclei fraction": 36.5}
{"smiles": "Cc1ccc(Nc2nccc(N(C)c3ccc4c(C)n(C)nc4c3)n2)cc1S(N)(=O)=O", "note": "[Pazopanib] + CCCS(=O)(=O)Nc1ccc(F)c(C(=O)c2c[nH]c3ncc(Cl)cc23)c1F [PLX4720] (first compound 0.4 µM, partner dose 0.08 µM)", "cleaved PARP positive nuclei fraction": 24.6}
{"smiles": "N#CC[C@H](C1CCCC1)n1cc(-c2ncnc3[nH]ccc23)cn1", "note": "[ruxolitinib] + OCc1c[nH]c2ccccc12 [Indole-3-carbinol] (first compound 1 µM, partner dose 0.8 µM)", "cleaved PARP positive nuclei fraction": 232}
{"smiles": "Cc1ccc(Nc2nccc(N(C)c3ccc4c(C)n(C)nc4c3)n2)cc1S(N)(=O)=O", "note": "[Pazopanib] + OCc1c[nH]c2ccccc12 [Indole-3-carbinol] (first compound 0.4 µM, partner dose 0.8 µM)", "cleaved PARP positive nuclei fraction": 74.1}
{"smiles": "COc1cc([C@@H]2c3cc4c(cc3[C@@H](O[C@@H]3O[C@@H]5CO[C@@H](C)O[C@H]5[C@H](O)[C@H]3O)[C@H]3COC(=O)[C@H]23)OCO4)cc(OC)c1O", "note": "[etoposide] + C[C@]1(O)C[C@@H](c2nc(-c3ccc4ccc(-c5ccccc5)nc4c3)c3c(N)nccn32)C1 [OSI906] (first compound 0.02 µM, partner dose 0.4 µM)", "cleaved PARP positive nuclei fraction": 30.6}
{"smiles": "N#CC[C@H](C1CCCC1)n1cc(-c2ncnc3[nH]ccc23)cn1", "note": "[ruxolitinib] + CO[C@H]1C[C@@H]2CC[C@@H](C)[C@@](O)(O2)C(=O)C(=O)N2CCCC[C@H]2C(=O)O[C@H]([C@H](C)C[C@@H]2CC[C@@H](OCCO)[C@H](OC)C2)CC(=O)[C@H](C)/C=C(\\C)[C@@H](O)[C@@H](OC)C(=O)[C@H](C)C[C@H](C)/C=C/C=C/C=C/1C [everolimus] (first compound 1 µM, partner dose 0.02 µM)", "cleaved PARP positive nuclei fraction": 66.6}
{"smiles": "Cc1ccc(Nc2nccc(N(C)c3ccc4c(C)n(C)nc4c3)n2)cc1S(N)(=O)=O", "note": "[Pazopanib] + Cn1nnc2c(C(N)=O)ncn2c1=O [temozolomide] (first compound 0.4 µM, partner dose 2 µM)", "cleaved PARP positive nuclei fraction": 66.1}
{"smiles": "O=c1[nH]nc(Sc2ncc([N+](=O)[O-])s2)n1-c1ccc2c(c1)OCCO2", "note": "+ CCCS(=O)(=O)Nc1ccc(F)c(C(=O)c2c[nH]c3ncc(Cl)cc23)c1F [PLX4720] (first compound 0.2 µM, partner dose 0.08 µM)", "cleaved PARP positive nuclei fraction": 30.2}
{"smiles": "Cc1ccc(Nc2nccc(N(C)c3ccc4c(C)n(C)nc4c3)n2)cc1S(N)(=O)=O", "note": "[Pazopanib] + CC(=O)c1c(C)c2cnc(Nc3ccc(N4CCNCC4)cn3)nc2n(C2CCCC2)c1=O [palbociclib] (first compound 0.4 µM, partner dose 0.04 µM)", "cleaved PARP positive nuclei fraction": 69.2}
{"smiles": "Cc1cn(-c2cc(NC(=O)c3ccc(C)c(Nc4nccc(-c5cccnc5)n4)c3)cc(C(F)(F)F)c2)cn1", "note": "[nilotinib] + CN(c1ncccc1CNc1nc(Nc2ccc3c(c2)CC(=O)N3)ncc1C(F)(F)F)S(C)(=O)=O [PF562271] (first compound 0.2 µM, partner dose 0.08 µM)", "cleaved PARP positive nuclei fraction": 76.5}
{"smiles": "CC[C@]1(O)C[C@H]2CN(CCc3c([nH]c4ccccc34)[C@@](C(=O)OC)(c3cc4c(cc3OC)N(C=O)[C@H]3[C@@](O)(C(=O)OC)[C@H](OC(C)=O)[C@]5(CC)C=CCN6CC[C@]43[C@@H]65)C2)C1", "note": "[vincristine] + COCC[n+]1c2c(n(Cc3cnccn3)c1C)C(=O)c1ccccc1C2=O [YM155] (first compound 0.0001 µM, partner dose 0.0004 µM)", "cleaved PARP positive nuclei fraction": 88.8}
{"smiles": "Cc1cn(-c2cc(NC(=O)c3ccc(C)c(Nc4nccc(-c5cccnc5)n4)c3)cc(C(F)(F)F)c2)cn1", "note": "[nilotinib] + O=C(O)[C@@H]1[O][Sb](=[O])([O][Sb]2(=[O])[O][C@H]([C@H](O)CO)[C@H](O)[C@H](C(=O)O)[O]2)[O][C@H]([C@H](O)CO)[C@@H]1O [stibogluconate] (first compound 0.2 µM, partner dose 2 µM)", "cleaved PARP positive nuclei fraction": 85.2}
{"smiles": "COc1cc([C@@H]2c3cc4c(cc3[C@@H](O[C@@H]3O[C@@H]5CO[C@@H](C)O[C@H]5[C@H](O)[C@H]3O)[C@H]3COC(=O)[C@H]23)OCO4)cc(OC)c1O", "note": "[etoposide] + CCCCCCCCCCCCCCCCCCOP(=O)([O-])OC1CC[N+](C)(C)CC1 [Perifosine] (first compound 0.02 µM, partner dose 0.4 µM)", "cleaved PARP positive nuclei fraction": 26.6}
{"smiles": "O=C(/C=C/c1cccnc1)NCCCCC1CCN(C(=O)c2ccccc2)CC1", "note": "+ CS(=O)(=O)c1ccc(C(=O)Nc2ccc(Cl)c(-c3ccccn3)c2)c(Cl)c1 [vismodegib] (first compound 0.01 µM, partner dose 1 µM)", "cleaved PARP positive nuclei fraction": 1200}
{"smiles": "O=C(Nc1cc(C(F)(F)F)cc(C(F)(F)F)c1)c1cc(Cl)ccc1O", "note": "+ CCCCCCCCc1ccc(CCC(N)(CO)CO)cc1 [fingolimod] (first compound 0.016 µM, partner dose 2 µM)", "cleaved PARP positive nuclei fraction": 37.1}
{"smiles": "CC[C@]1(O)C[C@H]2CN(CCc3c([nH]c4ccccc34)[C@@](C(=O)OC)(c3cc4c(cc3OC)N(C=O)[C@H]3[C@@](O)(C(=O)OC)[C@H](OC(C)=O)[C@]5(CC)C=CCN6CC[C@]43[C@@H]65)C2)C1", "note": "[vincristine] + CCCCCCCCCCCCCCCCCCOP(=O)([O-])OC1CC[N+](C)(C)CC1 [Perifosine] (first compound 0.0001 µM, partner dose 0.4 µM)", "cleaved PARP positive nuclei fraction": 34.9}
{"smiles": "Cc1cc(Nc2cc(N3CCN(C)CC3)nc(Sc3ccc(NC(=O)C4CC4)cc3)n2)n[nH]1", "note": "[Tozasertib] + C#Cc1cccc(Nc2ncnc3cc(OCCOC)c(OCCOC)cc23)c1 [erlotinib] (first compound 0.006 µM, partner dose 0.8 µM)", "cleaved PARP positive nuclei fraction": 69.8}
{"smiles": "Cc1cc(Nc2cc(N3CCN(C)CC3)nc(Sc3ccc(NC(=O)C4CC4)cc3)n2)n[nH]1", "note": "[Tozasertib] + CO[C@H]1C[C@@H]2CC[C@@H](C)[C@@](O)(O2)C(=O)C(=O)N2CCCC[C@H]2C(=O)O[C@H]([C@H](C)C[C@@H]2CC[C@@H](OCCO)[C@H](OC)C2)CC(=O)[C@H](C)/C=C(\\C)[C@@H](O)[C@@H](OC)C(=O)[C@H](C)C[C@H](C)/C=C/C=C/C=C/1C [everolimus] (first compound 0.006 µM, partner dose 0.02 µM)", "cleaved PARP positive nuclei fraction": 77}
{"smiles": "Cc1ccc(Nc2nccc(N(C)c3ccc4c(C)n(C)nc4c3)n2)cc1S(N)(=O)=O", "note": "[Pazopanib] + C#Cc1cccc(Nc2ncnc3cc(OCCOC)c(OCCOC)cc23)c1 [erlotinib] (first compound 0.4 µM, partner dose 0.8 µM)", "cleaved PARP positive nuclei fraction": 37.2}
{"smiles": "CCCCCCCCCCCCCCCCCCOP(=O)([O-])OC1CC[N+](C)(C)CC1", "note": "[Perifosine] + C=C(c1ccc(C(=O)O)cc1)c1cc2c(cc1C)C(C)(C)CCC2(C)C [Bexarotene] (first compound 0.4 µM, partner dose 2 µM)", "cleaved PARP positive nuclei fraction": 26.9}
{"smiles": "O=c1[nH]nc(Sc2ncc([N+](=O)[O-])s2)n1-c1ccc2c(c1)OCCO2", "note": "+ Cc1cc(Nc2cc(N3CCN(C)CC3)nc(/C=C/c3ccccc3)n2)n[nH]1 [ENMD2076] (first compound 0.2 µM, partner dose 0.04 µM)", "cleaved PARP positive nuclei fraction": 62.8}
{"smiles": "CCCCCCCCCCCCCCCCCCOP(=O)([O-])OC1CC[N+](C)(C)CC1", "note": "[Perifosine] + Clc1ccc(Nc2nnc(Cc3ccncc3)c3ccccc23)cc1 [vatalanib] (first compound 0.4 µM, partner dose 2 µM)", "cleaved PARP positive nuclei fraction": 74}
{"smiles": "Cc1cn(-c2cc(NC(=O)c3ccc(C)c(Nc4nccc(-c5cccnc5)n4)c3)cc(C(F)(F)F)c2)cn1", "note": "[nilotinib] + Cn1nnc2c(C(N)=O)ncn2c1=O [temozolomide] (first compound 0.2 µM, partner dose 2 µM)", "cleaved PARP positive nuclei fraction": 82.1}
